Results deposited as PubChem BioAssay AID1224826 (NIAID, 2016).
Screen: 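Genes that change LPS-induced Tnf promoter activity in mouse macrophages when knocked down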 (primary screen). Cell system: RAW264.7 G9 macrophages from mouse bearing reporters for p65 (GFP) and the Tnf promoter (mCherry). Reagent: siRNA pool against mouse genes, 100 nM. Timing: 16 h of LPS stimulation, after 2 days of siRNA transfection. Challenge: bacterial lipopolysaccharide (Salmonella minnesota R595), 10 ng/ml. Detection: 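Nuclear mCherry signal of the Tnf promoter reporter measured by imaging after background removal, scaled to each plate median and turned into robust z-scores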. Reading the numbers: Tnf reporter robust z-score: higher = stronger Tnf promoter reporter signal after LPS. Rule for the call: 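Called active when robust z-score is at most -1.3, matching the median of the Tlr4 knock-down control, or over 3; control wells and wells with under 50 cells never active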. Calls: active = Tnf reporter clearly lowered or raised; inactive = no clear change in Tnf reporter.
This is a random part of about 17,000 deposited reagents. About 1,110 of all reagents (6.6%) count as active. 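Active means lowered or raised reporter signal; replicate intensities are raw and not normalised per plate.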 Entries without a mark were called inactive. Further read-outs or replicates are left out here.

Ascc2 showed Tnf reporter robust z-score 3.32 (active); fewer than 50 cells in well enough cells in well.
Psbpc1 (retired record) scored Tnf reporter robust z-score -1.07; fewer than 50 cells in well enough cells in well.
Knock-down of Gpr4 gave: Tnf reporter robust z-score -0.25; fewer than 50 cells in well enough cells in well.
For Pcdhb10 the deposit lists Tnf reporter robust z-score -0.04; fewer than 50 cells in well enough cells in well.
Silencing of Ppp2r1b gave: Tnf reporter robust z-score -0.45; fewer than 50 cells in well enough cells in well.
Depletion of Hsd17b6 resulted in: Tnf reporter robust z-score -1.95 (active); fewer than 50 cells in well enough cells in well.
With knock-down of Dvl1, the record shows Tnf reporter robust z-score 1.4; fewer than 50 cells in well enough cells in well.
After knock-down of Txndc15, the screen gave Tnf reporter robust z-score -1.12; fewer than 50 cells in well enough cells in well.

Called active (from the list above):
Ascc2 — Tnf reporter robust z-score: 3.32 (active); fewer than 50 cells in well: enough cells in well
Hsd17b6 — Tnf reporter robust z-score: -1.95 (active); fewer than 50 cells in well: enough cells in well

The results go on.
Silencing of Glmp came out at: Tnf reporter robust z-score -0.52; fewer than 50 cells in well enough cells in well.
Depletion of Bcat2 resulted in: Tnf reporter robust z-score 1.58; fewer than 50 cells in well enough cells in well.
For 1700012B09Rik, the entry reads Tnf reporter robust z-score 1.17; fewer than 50 cells in well enough cells in well.
Pramel3c gave fewer than 50 cells in well fewer than 50 cells per well; well left out of calls.
Knock-down of Thrap3 resulted in: Tnf reporter robust z-score 2.99; fewer than 50 cells in well enough cells in well.
Against Naa20 the deposit lists Tnf reporter robust z-score -0.03; fewer than 50 cells in well enough cells in well.
